Drawing on doi:10.1101/2022.12.29.522251, this text covers binding for five molecules.

Chains of the proteins cited; added tags and fusions are not shown.
UniProt Q99496: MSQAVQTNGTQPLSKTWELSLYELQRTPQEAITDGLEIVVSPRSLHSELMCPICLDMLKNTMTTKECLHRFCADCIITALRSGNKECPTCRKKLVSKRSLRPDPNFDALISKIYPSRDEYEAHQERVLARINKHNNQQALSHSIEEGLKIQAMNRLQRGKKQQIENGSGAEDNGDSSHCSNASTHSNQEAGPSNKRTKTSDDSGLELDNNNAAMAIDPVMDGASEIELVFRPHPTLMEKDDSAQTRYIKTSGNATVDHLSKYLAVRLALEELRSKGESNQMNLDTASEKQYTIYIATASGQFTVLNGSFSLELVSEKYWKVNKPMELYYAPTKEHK
UniProt O75626: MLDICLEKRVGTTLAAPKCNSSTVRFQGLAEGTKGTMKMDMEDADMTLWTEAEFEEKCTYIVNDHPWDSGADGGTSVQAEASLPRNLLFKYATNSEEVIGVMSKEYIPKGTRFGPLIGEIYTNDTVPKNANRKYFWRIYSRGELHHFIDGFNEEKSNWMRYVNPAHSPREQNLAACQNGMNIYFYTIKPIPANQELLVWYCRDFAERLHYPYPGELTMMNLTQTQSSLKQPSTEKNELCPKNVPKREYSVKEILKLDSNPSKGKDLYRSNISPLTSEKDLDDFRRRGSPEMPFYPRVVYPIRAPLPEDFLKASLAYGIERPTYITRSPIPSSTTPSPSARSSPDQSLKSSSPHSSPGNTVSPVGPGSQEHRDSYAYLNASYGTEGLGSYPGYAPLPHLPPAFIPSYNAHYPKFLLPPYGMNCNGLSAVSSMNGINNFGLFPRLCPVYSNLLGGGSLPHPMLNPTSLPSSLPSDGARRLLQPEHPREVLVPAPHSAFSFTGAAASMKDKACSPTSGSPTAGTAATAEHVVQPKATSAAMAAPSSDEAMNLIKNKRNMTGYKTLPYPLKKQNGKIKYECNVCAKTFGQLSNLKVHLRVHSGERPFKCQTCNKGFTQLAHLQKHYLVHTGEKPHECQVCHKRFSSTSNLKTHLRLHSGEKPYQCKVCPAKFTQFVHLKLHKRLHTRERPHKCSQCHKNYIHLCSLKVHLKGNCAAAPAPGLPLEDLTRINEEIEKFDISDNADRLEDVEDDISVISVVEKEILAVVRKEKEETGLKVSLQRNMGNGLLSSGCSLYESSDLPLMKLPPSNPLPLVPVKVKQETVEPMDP
UniProt Q01860: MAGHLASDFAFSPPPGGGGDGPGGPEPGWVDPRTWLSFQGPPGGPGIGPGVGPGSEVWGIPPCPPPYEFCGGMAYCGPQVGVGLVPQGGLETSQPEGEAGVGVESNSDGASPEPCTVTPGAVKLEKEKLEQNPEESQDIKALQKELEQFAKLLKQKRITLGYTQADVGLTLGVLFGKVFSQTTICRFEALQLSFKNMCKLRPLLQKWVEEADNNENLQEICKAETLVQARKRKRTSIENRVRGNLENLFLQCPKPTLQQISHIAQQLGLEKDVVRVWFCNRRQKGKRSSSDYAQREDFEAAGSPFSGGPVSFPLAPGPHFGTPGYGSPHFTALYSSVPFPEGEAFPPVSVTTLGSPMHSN

These are yes or no findings as the source states them, for the method shown. Binding seen in cells or lysates may run through a third protein. Some results given as binding are weak or reduced against the parent protein; the word gives no strength.

Assay in all cases: co-IP
Assay [1] concerns the target T1, PRDM14 (human (endogenous in hPSCs)) (UniProt Q9GZV8).
T1 sequence: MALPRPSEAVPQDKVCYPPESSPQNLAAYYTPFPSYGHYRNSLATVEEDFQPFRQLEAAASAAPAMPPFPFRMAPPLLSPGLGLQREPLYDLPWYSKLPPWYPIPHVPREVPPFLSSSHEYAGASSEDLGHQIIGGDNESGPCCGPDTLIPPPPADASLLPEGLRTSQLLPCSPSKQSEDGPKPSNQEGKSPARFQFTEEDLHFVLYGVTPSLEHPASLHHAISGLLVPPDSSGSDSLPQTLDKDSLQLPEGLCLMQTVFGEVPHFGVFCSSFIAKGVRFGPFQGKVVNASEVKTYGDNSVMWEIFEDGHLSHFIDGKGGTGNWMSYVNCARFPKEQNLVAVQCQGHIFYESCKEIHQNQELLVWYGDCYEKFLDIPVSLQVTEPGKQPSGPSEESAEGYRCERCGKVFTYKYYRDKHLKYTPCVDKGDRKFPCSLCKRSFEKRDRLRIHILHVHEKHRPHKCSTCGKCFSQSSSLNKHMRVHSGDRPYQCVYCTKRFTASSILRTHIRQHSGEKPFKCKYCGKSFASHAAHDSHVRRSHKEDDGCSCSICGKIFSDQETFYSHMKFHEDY

The target in assay [2] is RING1B/RNF2 (human (endogenous in hPSCs and hPSC-derived foregut cells)) (UniProt Q99496).
Assay [3] addresses T2, RYBP (human (endogenous in hPSC-derived foregut cells)) (UniProt Q8N488).
T2 sequence: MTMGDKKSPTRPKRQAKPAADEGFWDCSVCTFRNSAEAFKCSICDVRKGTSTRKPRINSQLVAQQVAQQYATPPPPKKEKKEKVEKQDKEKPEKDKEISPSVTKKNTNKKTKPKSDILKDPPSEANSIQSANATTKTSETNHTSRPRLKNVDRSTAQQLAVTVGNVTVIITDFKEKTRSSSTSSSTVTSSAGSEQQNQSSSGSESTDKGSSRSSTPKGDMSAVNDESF

The target in assay [4] is PR domain zinc finger 1 (PRDM1) (human (endogenous in hPSC-derived foregut cells)) (UniProt O75626).

“OCT4 (encoded by POU5F1) (from UniProt Q01860 1-360)”: the binding entry in assay [1] is reported as “binds”.

Take “OCT4 (encoded by POU5F1) (from UniProt Q01860 1-360) (other; other documents disagree on this pair)”: in assay [2], the binding entry is “binds”. “PR domain zinc finger 1 (PRDM1) (from UniProt O75626 1-825)”: in assay [3], the binding entry is on record as “binds”.

B1: PRDM14 (protein, UniProt Q9GZV8 1-571)
chain: T1 sequence
In the case of B1, the binding entry in assay [2] is on record as “binds”.

B2: FOXA2 (protein, UniProt Q9Y261 1-457)
chain: MLGAVKMEGHEPSDWSSYYAEPEGYSSVSNMNAGLGMNGMNTYMSMSAAAMGSGSGNMSAGSMNMSSYVGAGMSPSLAGMSPGAGAMAGMGGSAGAAGVAGMGPHLSPSLSPLGGQAAGAMGGLAPYANMNSMSPMYGQAGLSRARDPKTYRRSYTHAKPPYSYISLITMAIQQSPNKMLTLSEIYQWIMDLFPFYRQNQQRWQNSIRHSLSFNDCFLKVPRSPDKPGKGSFWTLHPDSGNMFENGCYLRRQKRFKCEKQLALKEAAGAAGSGKKAAAGAQASQAQLGEAAGPASETPAGTESPHSSASPCQEHKRGGLGELKGTPAAALSPPEPAPSPGQQQQAAAHLLGPPHHPGLPPEAHLKPEHHYAFNHPFSINNLMSSEQQHHHSHHHHQPHKMDLKAYEQVMHYPGYGSPMPGSLAMGPVTNKTGLDASPLAADTSYYQGVYSRPIMNSS
Consider B2, for which the binding entry in assay [4] and in assay [2] was “binds” throughout.
